Experimental data from the supplement of paper PMC4604168 (melanoma cell lines).
This is one part of the list. Single values are uncertain, as repeats are few or missing.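 Imaging used 1,536-well plates; nuclei positive for cleaved PARP by antibody were divided by total DNA-stained nuclei to yield the apoptosis fraction. Doses for screening kept most cells viable, and cell lines differ markedly in resting and induced cleaved-PARP levels.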

Columns and labels:
Assay in all cases: cleaved PARP positive nuclei fraction relative to DMSO control; melanoma cells; higher = more apoptosis
Settings in all cases: library dose: low library concentration; 72 h
MZ2-MEL = tested on: MZ2-MEL
MeWo = tested on: MeWo
RPMI7951 = tested on: RPMI7951
RVH-421 = tested on: RVH-421
SkMel28 = tested on: SkMel28
SkMel2 = tested on: SkMel2
SkMel30 = tested on: SkMel30
UACC62 = tested on: UACC62
WM115 = tested on: WM115
WM1716 = tested on: WM1716
WM1745 = tested on: WM1745
WM3526 = tested on: WM3526
WM3619 = tested on: WM3619
WM451Lu = tested on: WM451Lu

SMILES | cleaved PARP positive nuclei fraction (MZ2-MEL) [%] | cleaved PARP positive nuclei fraction (MeWo) [%] | cleaved PARP positive nuclei fraction (RPMI7951) [%] | cleaved PARP positive nuclei fraction (RVH-421) [%] | cleaved PARP positive nuclei fraction (SkMel28) [%] | cleaved PARP positive nuclei fraction (SkMel2) [%] | cleaved PARP positive nuclei fraction (SkMel30) [%] | cleaved PARP positive nuclei fraction (UACC62) [%] | cleaved PARP positive nuclei fraction (WM115) [%] | cleaved PARP positive nuclei fraction (WM1716) [%] | cleaved PARP positive nuclei fraction (WM1745) [%] | cleaved PARP positive nuclei fraction (WM3526) [%] | cleaved PARP positive nuclei fraction (WM3619) [%] | cleaved PARP positive nuclei fraction (WM451Lu) [%]
C[C@@H](Oc1cc(-c2cnn(C3CCNCC3)c2)cnc1N)c1c(Cl)ccc(F)c1Cl [Crizotinib] + CS(=O)(=O)CCNCc1ccc(-c2ccc3ncnc(Nc4ccc(OCc5cccc(F)c5)c(Cl)c4)c3c2)o1 [lapatinib] (first compound 0.2 µM, partner dose 0.8 µM) | 31 | 193 | 167 | 174 | 86.5 | 100 | 29.3 | 192 | 131 | 1530 | 129 | 93.1 | 105 | 97.4
Nc1ccn([C@@H]2O[C@H](CO)[C@@H](O)C2(F)F)c(=O)n1 [gemcitabine] + Nc1nc(F)nc2c1ncn2[C@@H]1O[C@H](CO)[C@@H](O)[C@@H]1O [fludarabine] (first compound 0.0004 µM, partner dose 0.2 µM) | 117 | 454 | 40.9 | 203 | 199 | 246 | 732 | 45.4 | 178 | 75.2 | 157 | 814 | 181 | 80.2
CNC(=O)c1cc(Oc2ccc(NC(=O)Nc3ccc(Cl)c(C(F)(F)F)c3)cc2)ccn1 [sorafenib] + C=C(c1ccc(C(=O)O)cc1)c1cc2c(cc1C)C(C)(C)CCC2(C)C [Bexarotene] (first compound 0.4 µM, partner dose 2 µM) | 107 | 72.2 | 145 | 105 | 57.9 | 103 | 75.2 | 31.4 | 32.8 | 114 | 110 | 62.2 | 85.3 | 117
Cc1cc(Nc2cc(N3CCN(C)CC3)nc(/C=C/c3ccccc3)n2)n[nH]1 + Nc1ncn([C@H]2C[C@H](O)[C@@H](CO)O2)c(=O)n1 [decitabine] (first compound 0.04 µM, partner dose 0.1 µM) | 96 | 39.7 | 58.4 | 59.2 | 75.6 | 83.8 | 69.3 | 75.9 | 160 | 99.4 | 93.5 | 42.7 | 99.5 | 67
CC(C)C[C@H](NC(=O)[C@H](Cc1ccccc1)NC(=O)c1cnccn1)B(O)O [Bortezomib] + C#Cc1cccc(Nc2ncnc3cc(OCCOC)c(OCCOC)cc23)c1 [erlotinib] (first compound 0.001 µM, partner dose 0.8 µM) | 133 | 69 | 167 | 162 | 314 | 107 | 115 | 187 | 93.4 | 216 | 302 | 95.1 | 800 | 46.2
C=C(c1ccc(C(=O)O)cc1)c1cc2c(cc1C)C(C)(C)CCC2(C)C [Bexarotene] + Cn1c(Nc2ccc(C(F)(F)F)cc2)nc2cc(Oc3ccnc(-c4ncc(C(F)(F)F)[nH]4)c3)ccc21 [CHIR265] (first compound 2 µM, partner dose 0.08 µM) | 99.4 | 68.5 | 75.8 | 170 | 125 | 186 | 112 | 77.8 | 86.8 | 88.5 | 117 | 49.1 | 107 | 43.1
Cn1c(=O)n(-c2ccc(C(C)(C)C#N)cc2)c2c3cc(-c4cnc5ccccc5c4)ccc3ncc21 + Cn1nnc2c(C(N)=O)ncn2c1=O [temozolomide] (first compound 0.004 µM, partner dose 2 µM) | 136 | 77 | 74 | 56.3 | 88.7 | 101 | 116 | 371 | 82.8 | 78.8 | 98.1 | 44.3 | 93.5 | 67.1
C[C@@H](Oc1cc(-c2cnn(C3CCNCC3)c2)cnc1N)c1c(Cl)ccc(F)c1Cl [Crizotinib] + Nc1ccn([C@@H]2O[C@H](CO)[C@@H](O)C2(F)F)c(=O)n1 [gemcitabine] (first compound 0.2 µM, partner dose 0.0004 µM) | 114 | 32.4 | 135 | 89.5 | 69.9 | 67.4 | 47.3 | 168 | 97.7 | 131 | 98.8 | 34.9 | 107 | 108
Nc1ncn([C@H]2C[C@H](O)[C@@H](CO)O2)c(=O)n1 [decitabine] + COc1ccc(Cl)c(Nc2nc3ccccc3nc2NS(=O)(=O)c2cccc(NC(=O)C(C)(C)N)c2)c1 [XL147] (first compound 0.1 µM, partner dose 0.8 µM) | 80.8 | 119 | 177 | 133 | 137 | 57.1 | 71.9 | 118 | 168 | 193 | 113 | 97.4 | 65.8 | 28.8
CC(C)C[C@H](NC(=O)[C@H](Cc1ccccc1)NC(=O)c1cnccn1)B(O)O [Bortezomib] + Nc1cccc2c1CN(C1CCC(=O)NC1=O)C2=O [lenalidomide] (first compound 0.001 µM, partner dose 1 µM) | 54.3 | 151 | 114 | 42.5 | 78.6 | 105 | 201 | 201 | 146 | 357 | 175 | 37.2 | 686 | 40.1

Full records from above. Order of values: cleaved PARP positive nuclei fraction (MZ2-MEL) [%]	cleaved PARP positive nuclei fraction (MeWo) [%]	cleaved PARP positive nuclei fraction (RPMI7951) [%]	cleaved PARP positive nuclei fraction (RVH-421) [%]	cleaved PARP positive nuclei fraction (SkMel28) [%]	cleaved PARP positive nuclei fraction (SkMel2) [%]	cleaved PARP positive nuclei fraction (SkMel30) [%]	cleaved PARP positive nuclei fraction (UACC62) [%]	cleaved PARP positive nuclei fraction (WM115) [%]	cleaved PARP positive nuclei fraction (WM1716) [%]	cleaved PARP positive nuclei fraction (WM1745) [%]	cleaved PARP positive nuclei fraction (WM3526) [%]	cleaved PARP positive nuclei fraction (WM3619) [%]	cleaved PARP positive nuclei fraction (WM451Lu) [%]
C[C@@H](Oc1cc(-c2cnn(C3CCNCC3)c2)cnc1N)c1c(Cl)ccc(F)c1Cl [Crizotinib] + Nc1ccn([C@@H]2O[C@H](CO)[C@@H](O)C2(F)F)c(=O)n1 [gemcitabine] (first compound 0.2 µM, partner dose 0.0004 µM) as listed: 114	32.4	135	89.5	69.9	67.4	47.3	168	97.7	131	98.8	34.9	107	108
Nc1ncn([C@H]2C[C@H](O)[C@@H](CO)O2)c(=O)n1 [decitabine] + COc1ccc(Cl)c(Nc2nc3ccccc3nc2NS(=O)(=O)c2cccc(NC(=O)C(C)(C)N)c2)c1 [XL147] (first compound 0.1 µM, partner dose 0.8 µM) as listed: 80.8	119	177	133	137	57.1	71.9	118	168	193	113	97.4	65.8	28.8
